{
  "source": "patent US20210369677A1",
  "about": "“SMALL MOLECULE ACTIVATORS OF POLYCYSTIN-2 (PKD2) AND USES THEREOF” (Northwestern University, priority 2020, published 2021)",
  "test_system": "human PKD2 channel proteins (WT or C331S)",
  "assay": "Thermal stability assay (FSEC) of purified PKD2 channel proteins",
  "settings": "presence or absence of NS1643",
  "experimental": "Thermal stability assay. Approximately 9 μg of purified human PKD2 channel proteins (WT or C331S) in 30 μl buffer composed of 20 mM HEPES 150 mM NaCl, 2 mM CaCl2), 0.5 mM TCEP and 0.5 mM DDM (n-Dodecyl β-D-maltoside), at pH 7.4, were incubated at 4° C.-90° C. (4° C., room temperature, 30° C., 35.2° C., 39.3° C., 44.9° C., 49° C., 54° C., 60° C., 65.5° C., 69.4° C., 75° C., 79.3° C., 84° C., and 90° C.) for 10 minutes in a thermal cycler. To reduce the C331-C344 disulfide bond in the PKD2 channel, 10 mM GSH was added to all the buffers during purification and thermal stability assay. The treated channel samples were then diluted 10 times with the same buffer followed by centrifugation for 30 min at 40,000 rpm. 30 μl of each cleared channel samples were separated on an analytical size exclusion column (Superose™ 6 5/150 GL, GE Healthcare) at 0.3 ml/min flow rate. Proteins were detected by Tryptophan fluorescence. The FSEC-based thermostability experiments were performed in triplicates for each temperature point. The integrated area of the channel tetramer peak at different temperature points is normalized to that at 4° C. to generate the thermal stability plot.\nWe tested the thermal stability of PKD2 and the C331S variant in the presence or absence of NS1643. (See FIG. 33). We also performed Rosetta modeling. (See FIG. 35).",
  "data": [
    {"smiles": "O=C(Nc1cc(C(F)(F)F)ccc1O)Nc1cc(C(F)(F)F)ccc1O", "note": "[NS1643, 1,3-bis[2-hydroxy-5-(trifluoromethyl)phenyl]urea]", "values": [
      {"measurement": "Thermal stability of PKD2 and C331S in the presence of compound", "result": "stabilizes the structure of PKD2"}
    ]}
  ]
}
